Reference: PubChem BioAssay AID540256 (National Center for Advancing Translational Sciences (NCATS), 2011)
Screen size: about 300,000 compounds; about 3,700 (1.2%) were called active. The shares of active, inactive and inconclusive entries below differ from those in the screen. Calls come from the whole dose curve; tested in HEK293 cells. Potencies beside an inconclusive call are fits to weak or partial responses and may not hold up.

Test: qHTS for Inhibitors of binding or entry into cells for Lassa Virus; note: nearly all actives have a fitted effect of over 50% in size
Details: Lassa virus pseudotype entry inhibition, cell reporter; activity change, negative = inhibition: at 37.9 µM (top of the series) unless noted
% is set by controls: 0 for no effect and ±100 for the full control effect; potency is the fitted concentration of half-maximal effect.

| Compound | Potency | activity change, negative = inhibition |
| --- | --- | --- |
| O=C(Cc1cccs1)Nc1ccc(S(=O)(=O)N2CCCCC2)cc1 | inconclusive: 20 µM [inhibitor, partial curve, poor fit] | – |
| O=C1C2=C(Nc3ccccc3SC2c2ccc(Cl)c(Cl)c2)c2ccccc21 (centres undefined) | inconclusive: 8.91 µM [inhibitor, partial curve, poor fit] | – |
| CCOc1cc(CNCc2cccs2)ccc1OCC(=O)NC(C)(C)C | – | inactive: 14.9% |
| CN(C)CCCN(C(=O)c1ccco1)c1nc2ccc(Br)cc2s1 | – | inactive: -5.77% [at 46.1 µM] |
| Cc1cccc2c1N(CCOc1ccccc1)C(=O)C2=O | inconclusive: 35.5 µM [inhibitor, single point] | – |
| COc1cccc(N2C(=O)C(CC(=O)Nc3ccc(F)cc3)N(CCC3=CCCCC3)C2=O)c1 (centres undefined) | inconclusive: 7.08 µM [inhibitor, partial curve, poor fit] | – |
| CCCCn1c(N)c(N(CC(C)C)C(=O)C2CCN(S(=O)(=O)c3ccc(F)cc3)CC2)c(=O)[nH]c1=O | – | inactive: 10.8% |
| O=C(C1CCCN(S(=O)(=O)c2cccc3nsnc23)C1)N1CCc2ccccc2C1 (centres undefined) | inconclusive: 35.5 µM [inhibitor, single point] | – |
| CC(NC(=O)CN(C)CC(=O)Nc1cccc(F)c1)c1ccccc1 (centres undefined) | – | inactive: 1.43% |
| CCCCn1c(=O)[nH]c2nc3cc(NC(C)=O)ccc3nc2c1=O | – | inactive: 13.9% |
| CCc1cc2c(N[C@@H](Cc3ccccc3)C(=O)O)ncnc2s1 | inconclusive: 0.316 µM [inhibitor, partial curve, poor fit] | – |
| CC1SCC(NC(=O)c2cccc(Cl)c2)CS1 (centres undefined) | – | inactive: -0.56% |
| Cc1cccc2cc3c(nc12)SC(=NCC1CCCO1)N(Cc1ccco1)C3 (centres undefined) | inconclusive: 11.2 µM [inhibitor, partial curve, poor fit] | – |
| Nc1c(S(=O)(=O)c2cccs2)c2nc3ccccc3nc2n1/N=C/c1cccc(O)c1 | inconclusive: 35.5 µM [inhibitor, single point] | – |
| CCN(CC)CCNCc1nc2ccccc2c(=O)n1-c1ccc(F)cc1 | – | inactive: -11.2% |
| C/C(=N\NC(N)=O)c1ccccc1Cl | – | inconclusive: 17% [activator] [at 46.1 µM] |
| C[N+]1(C)C2CCC1CC(OC(=O)C(CO)c1ccccc1)C2 (centres undefined) | inconclusive: 29.1 µM [activator, partial curve, poor fit] | – |
| S=c1[nH]c2ccccc2[nH]1 | inconclusive: 1.26 µM [inhibitor, single point] | – |
| O=C(NCC1COc2ccccc2O1)c1cn(Cc2ccc(F)cc2)nn1 (centres undefined) | – | inactive: 1.68% |
| O=C(CN(c1cccc(C(F)(F)F)c1)S(=O)(=O)c1ccc(Cl)c([N+](=O)[O-])c1)NCc1ccc(F)cc1 | inconclusive: 29.1 µM [inhibitor, single point] | – |
| Cc1ccc(S(=O)(=O)N2CCCCC2)cc1NC(=O)c1ccc2c(=O)n3c(nc2c1)CCCCC3 | active: 16.4 µM | – |
| N#CCN(CC#N)C(=O)C1c2ccccc2Oc2ccccc21 | inconclusive: 3.55 µM [activator, partial curve, poor fit] | – |

Compounds shown so far with an NH in an aromatic ring:

| Compound | Potency | activity change, negative = inhibition |
| --- | --- | --- |
| CCCCn1c(N)c(N(CC(C)C)C(=O)C2CCN(S(=O)(=O)c3ccc(F)cc3)CC2)c(=O)[nH]c1=O | – | inactive: 10.8% |
| CCCCn1c(=O)[nH]c2nc3cc(NC(C)=O)ccc3nc2c1=O | – | inactive: 13.9% |
| S=c1[nH]c2ccccc2[nH]1 | inconclusive: 1.26 µM [inhibitor, single point] | – |

The list goes on:

| Compound | Potency | activity change, negative = inhibition |
| --- | --- | --- |
| Cc1cccc(CSCc2ccc(C(=O)NCC3CCCO3)o2)c1 (centres undefined) | inconclusive: 15.8 µM [inhibitor, single point] | – |
| O=C(c1cc(COc2ccc(F)cc2F)on1)N1CCN(C2CCCC2)C(=O)C1 | inconclusive: 1.41 µM [inhibitor, full curve] | – |
| O=C(Cn1c(=O)c(C(F)(F)F)nc2ccccc21)N1CCC2(CC1)OCCO2 | – | inactive: -2.77% |
| COc1ccc(Nc2ncc(-c3ccccc3)o2)cc1OC | inconclusive: 22.3 µM [inhibitor, partial curve, poor fit] | – |
| COc1ccc(C)cc1S(=O)(=O)Nc1cccc(-c2ccc(N3CCC(C)CC3)nn2)c1 | – | inactive: 28.8% [at 46.1 µM] |
| CC1CCN(CC(=O)Nc2ccc(Cl)cc2[N+](=O)[O-])CC1 | – | inactive: 0.505% |
| COc1cccc(C(=O)Oc2ccc3c(C)cc(=O)oc3c2C(C)=O)c1 | inconclusive: 0.891 µM [inhibitor, single point] | – |
| CC1(C)CC(=O)C(N=Nc2cccc([N+](=O)[O-])c2)=C(O)C1 | inconclusive: 25.1 µM [inhibitor, single point] | – |
| Cc1ccc(CSCc2nnc(SCC(=O)N3CCN(c4ccccc4)CC3)n2C)cc1 | inconclusive: 10 µM [inhibitor, partial curve] | – |
| COc1ccc(N2CCN(C(=O)CSc3nnnn3-c3ccc4c(c3)OCCO4)CC2)cc1 | active: 2.91 µM | – |
| COc1ccc(C(=O)/C=C/c2ccc(F)cc2)c(OC(=O)c2ccc([N+](=O)[O-])cc2)c1 | – | inactive: 1.63% |
| C/C(CCc1ccco1)=N/NC(=O)CCC(=O)Nc1cccc(Cl)c1 | inconclusive: 7.3 µM [activator, single point] | – |
| CCC(CC)C(=O)Nc1nnc(SCC(=O)NC2CC2)s1 | inconclusive: 35.5 µM [inhibitor, single point] | – |
| CCOc1ccccc1-n1c(CN2CCN(C(=O)c3ccco3)CC2)nc2ccccc2c1=O | – | inactive: 6.66% |
| c1ccc(Cn2c(-c3ccccc3)c[n+]3c2SCCC3)cc1 | inconclusive: 8.91 µM [inhibitor, partial curve] | – |
| CC(=O)N(CN1C(=O)CCC1=O)c1cccc(Cl)c1 | inconclusive: 35.5 µM [inhibitor, single point] | – |
| CC(=O)N1CCN(C(=O)CCc2c[nH]c3ccccc23)CC1 | – | inactive: 13.9% |
| CCn1cc(CN2CCc3c([nH]c4ccccc34)C2c2cccc(O)c2)c(C)n1 (centres undefined) | inconclusive: 0.891 µM [inhibitor, partial curve, poor fit] | – |
| O=C(CCNS(=O)(=O)c1ccc(Cl)cc1)N1CCOCC1 | – | inactive: 10.8% |
| Cc1ccc(NC(=O)c2nc(S(=O)(=O)Cc3cccc(C)c3)ncc2Cl)cc1 | inconclusive: 20 µM [inhibitor, partial curve] | – |
| CCc1nc(Nc2ccc(O)cc2)c2oc3ccccc3c2n1 | inconclusive: 35.5 µM [inhibitor, single point] | – |
| N[C@@H](Cc1c[nH]c2ccccc12)c1nnc(SCc2c(F)cccc2Cl)o1 | inconclusive: 0.0052 µM [inhibitor, full curve, poor fit] | – |
